# Experimental data as given in PubChem BioAssay AID588497 (NMMLSC, 2011).
# Out of some 360,000 compounds screened, about 780 (0.22%) were called active. Inconclusive results, whose numbers are uncertain, are shown with a selection of clear calls. No stated cut-off is given here; in the data, active means inhibition above about 35% (passing the limit was not always enough); inconclusive means no clear call, values can overlap the other calls.
# Tested on: Botulinum neurotoxin type F light chain protease (Clostridium botulinum)
# Assay: BoNT/F light chain protease inhibitors, primary screen, biochemical, flow cytometry, MLPCN library (AID 588497); further: plate controls were buffer without enzyme for full effect and enzyme alone for no effect
# Conditions: Multiplex microsphere protease cleavage assay, at 10 µM, active compounds read high
row,SMILES,inhibition
1,COc1cc(-c2nc3c4ccccc4nc(=S)n3[nH]2)cc(OC)c1OC,inconclusive: -33%
2,Cc1ccc(S(=O)(=O)c2cc3c(=O)n4cccc(C)c4nc3n(CC3CCCO3)c2=N)cc1C (stereo not given),inconclusive: 92%
3,O=C(CN(C(=O)Cn1nnc(-c2ccccc2F)n1)c1cccc2c1CCCC2)NCc1ccccc1,inconclusive: -20.4%
4,COc1ccc2c(c1)c(C(C)=O)c(C)n2-c1ccc(C(C)=O)cc1,inconclusive: 25.9%
5,O=C(Cc1ccc(Br)cc1)N1CCCC1,inconclusive: -7%
6,COc1ccc(OCCCC(=O)Nc2cc(S(=O)(=O)N3CCCCC3)ccc2C)cc1,inactive: 0.9%
7,CCn1nc(C)c(/C=N/NC(=O)c2nc3nc(C)cc(C)n3n2)c1C,inconclusive: -3.4%
8,COc1ccccc1-c1ccc(/C=C2\C=CC(=O)O2)o1,inconclusive: -19.7%
9,CC12CN3CC(c4ccccc4)(CN(C1)C31CCCCC1)C2=O,inconclusive: -142%
10,O=C(COC(=O)/C=C/c1ccc(C(F)(F)F)cc1)NCc1ccco1,inactive: 7%
11,CSC1=C(C#N)C(=O)NC(c2ccccc2O)S1 (stereo not given),inconclusive: -83.3%
12,CCOc1ccc2ccccc2c1CNCCc1ccc(S(N)(=O)=O)cc1,inconclusive: -2.7%
13,CC(=O)Nc1ccc(S(=O)(=O)NCCC(=O)OCc2nc(N)nc(Nc3ccccc3C)n2)cc1,inactive: 0.4%
14,Cc1ccc([N+](=O)[O-])cc1NC(=O)Nc1cccc(F)c1,inconclusive: 1%
15,COc1ccc(-c2csc(NC(=S)NC(=O)c3ccccc3)n2)cc1Br,inconclusive: -1.6%
16,CN(C)c1c2ccccc2nc2c(F)c(F)c(F)c(F)c12,inactive: 5.7%
17,S=c1[nH]nc(-c2ccncc2)n1/N=C/c1cn(-c2ccccc2)nc1-c1ccccc1,inconclusive: 28.2%
18,Cc1c(C(=O)NN)sc(=S)n1C,inconclusive: -81.9%
19,CN(CCCn1ccc(N)nc1=O)Cc1ccco1,inactive: -5.3%
20,CCOC(=O)CSc1ncc(OC)c(Sc2ccc(Cl)cc2)n1,inactive: 0.3%
21,O=C(CNC(=O)c1ccc(Cl)cc1Cl)OCc1cn2cc(Br)ccc2n1,inactive: 5.5%
22,Cc1nn(C)c(C)c1S(=O)(=O)N1CCCC(C(=O)N2CCN(c3ccc(Cl)cc3)CC2)C1 (stereo not given),inconclusive: 47.2%
23,COc1ccccc1/C=C/C=N/n1c(-c2cc(-c3ccccc3)n[nH]2)n[nH]c1=S,inconclusive: -3%

row,SMILES,inhibition
1,COc1ccc(N2C(=O)CC(N3CCN(c4ccccc4)CC3)C2=O)cc1 (stereo not given),inconclusive: -13.2%
2,O=C(NNc1ccc(Cl)cc1)c1c(F)cccc1Cl,inconclusive: -90.3%
3,CCn1c2ccccc2c2nnc(SCCN3CCCCC3)nc21,inconclusive: -8.4%
4,CCn1c(N2CCN(CC(=O)c3c[nH]c4ccccc34)CC2)nc2c1c(=O)[nH]c(=O)n2C,inconclusive: -20.9%
5,C=CCn1c(SCC(=O)Nc2ccc3c(c2)OCO3)nnc1-c1cc(Br)ccc1O,inactive: -6.5%
6,CS(=O)(=O)N(CC(=O)N1CCCCC1)Cc1ccccc1,inconclusive: -19.9%
7,CCC(NC(=O)Cc1cccs1)c1ccccc1 (stereo not given),inconclusive: 22.6%
8,Cc1ccc(C2C(C#N)=C(N)Oc3cc(N)ccc32)cc1 (stereo not given),inconclusive: -12.6%
9,CC(=O)N[C@@H](Cc1c[nH]c2ccccc12)C(=O)OCC(=O)Nc1ccc2c(c1)OCO2,inactive: -8.4%
10,CN1CCN(S(=O)(=O)c2ccc(NC(=O)c3ccccc3F)cc2)CC1,inconclusive: -3.5%
11,CC(C)NC(=O)N(C)C[C@H]1Oc2ccc(NS(=O)(=O)c3ccc(F)cc3)cc2C(=O)N([C@H](C)CO)C[C@@H]1C,inactive: -5.9%
12,Cc1nc(CS(=O)(=O)c2ccc(Cl)cc2)sc1C(=O)O,inconclusive: -65.3%
13,O[C@@H](c1cc(C(F)(F)F)nc2c(C(F)(F)F)cccc12)[C@H]1CCCCN1,inactive: -21.9%
14,CCN(CC(=O)NC)S(=O)(=O)c1ccc(Br)cc1,inconclusive: -20.9%
15,CCC(Sc1ncccc1C(=O)OC(C)C)C(=O)NCc1ccco1 (stereo not given),inactive: 5.1%
16,O=C(COC(=O)CNC(=O)c1ccccc1F)NCCNC(=O)COC(=O)CNC(=O)c1ccccc1F,inactive: 16%
17,N/C(CC1CC1(Cl)Cl)=N\OC(=O)c1ccccc1 (stereo not given),inconclusive: 26%
18,COc1cccc(OC)c1NC(=O)CN1CCN(C)CC1,inactive: -8.3%
19,CCN(CC)c1nc2c(c(=O)[nH]c(=O)n2C)n1CCOc1ccccc1,inconclusive: -10.4%
20,O=S(=O)(c1ccc(-c2ccccc2)cc1)N1CCCCC1,inconclusive: 12.7%
21,CCOC(=O)c1c2c3c(cccc3n(C)c1=O)C(=O)c1ccccc1-2,active: 40.3%
22,CCCCN1CC(N2CCCCC2)CS1(=O)=O (stereo not given),inactive: -0.5%
23,CCOC(=O)c1c(C)[nH]c(C(=O)COC(=O)C2CC2)c1C,inconclusive: 15.5%

# 6 compounds drawn at random from those above, as already listed:
row,SMILES,inhibition
17,N/C(CC1CC1(Cl)Cl)=N\OC(=O)c1ccccc1 (stereo not given),inconclusive: 26%
2,O=C(NNc1ccc(Cl)cc1)c1c(F)cccc1Cl,inconclusive: -90.3%
21,CCOC(=O)c1c2c3c(cccc3n(C)c1=O)C(=O)c1ccccc1-2,active: 40.3%
9,CC(=O)N[C@@H](Cc1c[nH]c2ccccc12)C(=O)OCC(=O)Nc1ccc2c(c1)OCO2,inactive: -8.4%
7,CCC(NC(=O)Cc1cccs1)c1ccccc1 (stereo not given),inconclusive: 22.6%
6,CS(=O)(=O)N(CC(=O)N1CCCCC1)Cc1ccccc1,inconclusive: -19.9%

# The list continues:

row,SMILES,inhibition
1,CCCCN(C(=O)c1nn(C)c(=O)c2ccccc12)c1c(N)n(CC(C)C)c(=O)[nH]c1=O,inactive: -8.5%
2,CCCNC(=O)CCc1c(C)nc2c(c(C)nn2-c2ccc(C)cc2)c1C,inconclusive: 2.4%
3,S=C(Nc1ccc2[nH]ccc2c1)NC1CCCCC1,inconclusive: -152%
4,CCOC(=O)c1ccc(N2CCCCC2)c(NS(=O)(=O)c2cccc(C(F)(F)F)c2)c1,inconclusive: 1.4%
5,CCN(Cc1ccccc1)C(=O)c1ccc(C(=O)N(CC)Cc2ccccc2)cc1,inconclusive: -22.8%
6,Cc1ccccc1Nc1c([N+](=O)[O-])cncc1[N+](=O)[O-],inconclusive: -19.5%
7,CCOC(=O)c1cc(-c2csc(N/N=C/c3ccccc3Cl)n2)on1,inconclusive: -54.4%
8,COc1cc(OC)cc(C(=O)NCC(=O)N2CCN(S(=O)(=O)c3ccccc3F)CC2)c1,inconclusive: 8.1%
9,CC(C)[C@H](NC(=O)C1CCC(CNC(=O)[C@@H]2CCCN2C(=O)OC(C)(C)C)CC1)C(=O)O (stereo not given in full),inconclusive: -12%
10,Cc1cc(=O)oc2c3c(cc(OCC(=O)N4CCC(C(=O)O)CC4)c12)OC(C)(C)CC3,inactive: -5.5%
11,O=C(O)c1nsc(Cl)c1Cl,inconclusive: -28.4%
12,CN(C(=O)COC(=O)CCC(=O)c1ccc(F)cc1)C1CCCCC1,inactive: -1.7%
13,Cc1ccc(S(=O)(=O)N(C)C)cc1NC(=O)COC(=O)C1CC1,inactive: 9.2%
14,COc1ccc(-c2nc(C#N)c(N3CCC(C(N)=O)CC3)o2)cc1OC,inconclusive: -23.7%
15,CCOC(=O)/C=C(C)\C=C\c1c[nH]c2ccccc12,inconclusive: -190%
16,O=C(O)COc1ccc(Br)cc1/C=N\Nc1ccccn1,inconclusive: 14.5%
17,Cc1ccc(NC(=O)CN(C(=O)N2CCN(C)CC2)S(=O)(=O)c2ccc(C)cc2)cc1,inconclusive: 4.1%
18,COc1ccc(NC(=O)c2cccs2)cc1O,inconclusive: 5%
19,Cc1ccc2c(CC(=O)NCC(=O)Nc3c(C)cccc3C)coc2c1,inconclusive: 6.9%
20,CC(CN1c2ccccc2Sc2ccccc21)N(C)C (stereo not given),inactive: -10.4%
21,CCCCCCCCc1nc(SCC(C)=O)n[nH]1,inconclusive: 55.1%
22,Cc1ccccc1CNC(=O)c1ccc2nc([C@@H]3O[C@H](CO)[C@H](O)[C@H](O)[C@H]3O)[nH]c2c1,inactive: -6.7%
23,O=C(N/N=C/c1ccccn1)C(O)c1ccccc1 (stereo not given),inconclusive: 91.4%

row,SMILES,inhibition
1,COc1ccc(C2Nc3ccccc3NC3=C2C(=O)CC(C)(C)C3)cc1OC (stereo not given),inconclusive: -9.6%
2,NS(=O)(=O)c1ccc(NC=C2C(=O)OC3(CCCCC3)OC2=O)cc1,inactive: 1.3%
3,COc1ccc(CCNC(=O)c2c(O)c3ccccc3n(C)c2=O)cc1,inconclusive: 13.4%
4,CCSc1nc2sc3c(c2c(=O)n1-c1ccccc1C)CCN(C)C3,inactive: 4.8%
5,C/C(=N\Nc1ccc2nncn2n1)c1ccc(Br)s1,inactive: 20.2%
6,Cc1ccc2nc(/C(C#N)=C\c3ccc(N4CCOCC4)o3)[nH]c2c1,active: 110%
7,COc1ccc(NC(=O)CSc2nc3ccsc3c(=O)n2CCC(=O)O)c(OC)c1,inactive: -1%
8,NC(=O)COc1ccc2cc(-c3ccc(F)cc3)c(=O)oc2c1,inactive: -24.6%
9,c1ccc(CN2CCN(c3cnc4ccccc4n3)CC2)cc1,inconclusive: 5.1%
10,CC(=O)Nc1cccc(-n2nnc(SCC(=O)c3ccccc3)n2)c1,inconclusive: -7.6%
11,COc1ccc(CCn2nnnc2C(C(C)C)N2CCC(C(N)=O)CC2)cc1OC (stereo not given),inconclusive: -25.7%
12,CCC(=O)N1c2ccccc2NC2=C(C(=O)CCC2)C1c1ccccc1 (stereo not given),inactive: -8.8%
13,Cc1nc(SCc2ccccc2F)c2oc3ccccc3c2n1,inconclusive: 21.2%
14,N#Cc1ccc(C(=O)OCC(=O)Nc2cccc(S(=O)(=O)NC3=NCCC3)c2)cc1,inconclusive: -7.6%
15,COc1ccc(CCNC(=O)C(NC(=O)OCc2ccccc2)C(C)C)cc1OC (stereo not given),inconclusive: 27.7%
16,COc1ccc(CNC(=O)c2c(O)c3ccccc3n(C)c2=O)cc1,inconclusive: 32.3%
17,O=C(Nc1ccccn1)c1ccc(C(=O)Nc2ccccn2)cc1,inconclusive: 3.6%
18,O=C1CCCCC1C(O)(C(=O)c1ccccc1)c1ccccc1 (stereo not given),inactive: 3.6%
19,CCN(CC)Cc1ccccn1,inconclusive: 109%
20,CCN(CC)CCNC(=O)c1cn(CCOC)c(=O)c2c1c1ccccc1n2C,inactive: 25.4%
21,c1ccc(SSc2ccccn2)nc1,inconclusive: -9.5%
